These are yes or no findings as the source states them, for the method shown. Binding seen in cells or lysates may run through a third protein. Here binding means that the protein was enriched with, or labelled near, the bait; the list need not be complete. No binding means not detected with the bait.

The chains behind the UniProt entries cited, without tags or fusion partners.
UniProt P22082: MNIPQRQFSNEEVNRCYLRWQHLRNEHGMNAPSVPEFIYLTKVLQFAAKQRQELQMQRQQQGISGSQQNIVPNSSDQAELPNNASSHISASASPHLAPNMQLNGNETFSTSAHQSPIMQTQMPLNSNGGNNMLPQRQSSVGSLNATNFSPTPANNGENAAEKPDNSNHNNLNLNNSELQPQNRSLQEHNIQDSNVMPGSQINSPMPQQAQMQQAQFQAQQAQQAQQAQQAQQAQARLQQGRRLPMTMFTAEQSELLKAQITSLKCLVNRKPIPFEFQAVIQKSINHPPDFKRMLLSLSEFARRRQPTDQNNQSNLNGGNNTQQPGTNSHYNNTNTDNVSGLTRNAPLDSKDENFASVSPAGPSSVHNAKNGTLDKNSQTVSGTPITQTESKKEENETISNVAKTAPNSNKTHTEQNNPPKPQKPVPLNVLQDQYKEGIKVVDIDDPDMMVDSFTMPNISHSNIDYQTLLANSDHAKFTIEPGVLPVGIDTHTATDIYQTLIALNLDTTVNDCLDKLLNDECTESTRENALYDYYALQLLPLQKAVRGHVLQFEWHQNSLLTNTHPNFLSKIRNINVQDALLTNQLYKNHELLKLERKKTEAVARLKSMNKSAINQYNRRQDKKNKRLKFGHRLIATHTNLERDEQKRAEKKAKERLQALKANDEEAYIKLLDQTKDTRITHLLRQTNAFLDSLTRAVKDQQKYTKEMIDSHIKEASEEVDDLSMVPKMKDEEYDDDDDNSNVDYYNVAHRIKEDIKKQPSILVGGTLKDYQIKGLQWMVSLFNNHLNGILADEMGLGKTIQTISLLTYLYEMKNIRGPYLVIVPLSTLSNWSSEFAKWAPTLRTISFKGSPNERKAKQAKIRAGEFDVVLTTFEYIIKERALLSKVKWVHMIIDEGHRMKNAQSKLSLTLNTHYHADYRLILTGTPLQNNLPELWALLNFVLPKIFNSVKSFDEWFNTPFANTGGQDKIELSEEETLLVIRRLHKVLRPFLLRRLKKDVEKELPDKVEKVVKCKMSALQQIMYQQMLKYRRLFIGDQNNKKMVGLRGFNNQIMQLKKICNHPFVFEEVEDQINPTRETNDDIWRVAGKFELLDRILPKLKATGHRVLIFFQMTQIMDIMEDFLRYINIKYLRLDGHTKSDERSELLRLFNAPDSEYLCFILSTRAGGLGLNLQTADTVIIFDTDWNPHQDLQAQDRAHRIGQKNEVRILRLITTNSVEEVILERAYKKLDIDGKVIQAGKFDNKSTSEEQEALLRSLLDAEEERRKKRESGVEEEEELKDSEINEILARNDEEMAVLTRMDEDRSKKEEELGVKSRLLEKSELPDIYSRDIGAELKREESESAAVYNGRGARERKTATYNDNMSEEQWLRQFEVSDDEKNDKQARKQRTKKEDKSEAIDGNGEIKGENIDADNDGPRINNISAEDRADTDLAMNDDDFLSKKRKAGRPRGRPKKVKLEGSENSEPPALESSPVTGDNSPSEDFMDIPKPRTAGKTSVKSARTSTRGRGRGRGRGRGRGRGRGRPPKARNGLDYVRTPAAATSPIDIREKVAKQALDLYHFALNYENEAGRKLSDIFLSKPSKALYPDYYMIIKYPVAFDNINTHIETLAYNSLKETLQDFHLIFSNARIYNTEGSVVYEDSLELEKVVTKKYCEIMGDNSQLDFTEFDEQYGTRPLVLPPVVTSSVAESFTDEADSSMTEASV
UniProt P18480: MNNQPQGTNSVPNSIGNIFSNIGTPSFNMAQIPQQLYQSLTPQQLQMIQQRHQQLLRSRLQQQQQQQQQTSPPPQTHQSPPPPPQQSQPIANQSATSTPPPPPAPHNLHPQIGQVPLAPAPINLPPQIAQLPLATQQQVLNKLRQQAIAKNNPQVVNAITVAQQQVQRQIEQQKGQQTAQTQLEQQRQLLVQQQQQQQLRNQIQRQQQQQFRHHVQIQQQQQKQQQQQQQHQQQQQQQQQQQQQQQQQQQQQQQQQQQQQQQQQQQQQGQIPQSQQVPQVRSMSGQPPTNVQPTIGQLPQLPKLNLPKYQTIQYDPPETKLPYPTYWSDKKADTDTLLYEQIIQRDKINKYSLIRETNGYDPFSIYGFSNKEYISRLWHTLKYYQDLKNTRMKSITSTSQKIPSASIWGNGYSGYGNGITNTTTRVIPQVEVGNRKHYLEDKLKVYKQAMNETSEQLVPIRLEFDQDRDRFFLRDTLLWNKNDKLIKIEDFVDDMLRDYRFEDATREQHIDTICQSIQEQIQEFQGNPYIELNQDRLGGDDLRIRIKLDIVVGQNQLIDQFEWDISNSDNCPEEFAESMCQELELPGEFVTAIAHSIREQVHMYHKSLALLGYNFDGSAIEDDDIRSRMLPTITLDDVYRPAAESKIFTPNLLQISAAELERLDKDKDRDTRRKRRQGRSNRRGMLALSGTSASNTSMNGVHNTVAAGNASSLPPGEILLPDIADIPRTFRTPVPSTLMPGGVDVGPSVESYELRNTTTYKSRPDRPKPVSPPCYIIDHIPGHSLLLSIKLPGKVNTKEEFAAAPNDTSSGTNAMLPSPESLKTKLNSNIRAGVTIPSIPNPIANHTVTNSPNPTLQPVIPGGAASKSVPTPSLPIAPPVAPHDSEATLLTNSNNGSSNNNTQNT
UniProt Q05123: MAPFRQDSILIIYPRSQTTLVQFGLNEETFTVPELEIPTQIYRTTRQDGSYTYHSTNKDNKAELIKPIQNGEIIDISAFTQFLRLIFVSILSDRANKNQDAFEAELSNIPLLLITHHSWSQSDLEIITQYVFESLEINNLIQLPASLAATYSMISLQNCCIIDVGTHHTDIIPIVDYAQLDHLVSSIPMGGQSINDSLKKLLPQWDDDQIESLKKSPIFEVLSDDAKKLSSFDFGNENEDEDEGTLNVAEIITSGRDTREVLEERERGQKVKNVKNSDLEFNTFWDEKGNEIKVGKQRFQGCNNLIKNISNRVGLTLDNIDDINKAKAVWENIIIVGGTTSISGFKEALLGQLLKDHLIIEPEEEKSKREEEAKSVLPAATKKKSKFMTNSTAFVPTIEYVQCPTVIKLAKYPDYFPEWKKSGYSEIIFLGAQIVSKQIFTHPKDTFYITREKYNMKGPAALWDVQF
UniProt P32591: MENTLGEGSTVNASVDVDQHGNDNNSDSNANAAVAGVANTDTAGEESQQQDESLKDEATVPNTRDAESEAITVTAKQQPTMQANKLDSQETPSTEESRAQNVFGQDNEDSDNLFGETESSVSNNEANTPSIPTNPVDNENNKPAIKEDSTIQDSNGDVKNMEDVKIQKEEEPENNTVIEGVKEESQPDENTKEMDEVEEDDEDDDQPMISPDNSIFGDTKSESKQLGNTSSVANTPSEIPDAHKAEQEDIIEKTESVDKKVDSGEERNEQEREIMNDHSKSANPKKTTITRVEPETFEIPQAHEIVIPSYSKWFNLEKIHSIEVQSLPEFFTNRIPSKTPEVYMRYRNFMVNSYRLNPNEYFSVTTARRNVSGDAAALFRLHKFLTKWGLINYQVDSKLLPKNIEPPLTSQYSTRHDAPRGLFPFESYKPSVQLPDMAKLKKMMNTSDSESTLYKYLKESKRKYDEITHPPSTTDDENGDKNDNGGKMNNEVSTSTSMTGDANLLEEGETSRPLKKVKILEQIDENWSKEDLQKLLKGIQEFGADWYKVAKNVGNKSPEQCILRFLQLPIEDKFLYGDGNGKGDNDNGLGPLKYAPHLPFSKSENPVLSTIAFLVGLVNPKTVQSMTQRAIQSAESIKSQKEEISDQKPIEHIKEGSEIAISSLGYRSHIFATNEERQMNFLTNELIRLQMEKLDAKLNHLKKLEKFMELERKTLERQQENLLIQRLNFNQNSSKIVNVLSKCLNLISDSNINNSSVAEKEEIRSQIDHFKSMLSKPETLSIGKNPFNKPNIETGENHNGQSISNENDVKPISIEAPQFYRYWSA
UniProt P43554: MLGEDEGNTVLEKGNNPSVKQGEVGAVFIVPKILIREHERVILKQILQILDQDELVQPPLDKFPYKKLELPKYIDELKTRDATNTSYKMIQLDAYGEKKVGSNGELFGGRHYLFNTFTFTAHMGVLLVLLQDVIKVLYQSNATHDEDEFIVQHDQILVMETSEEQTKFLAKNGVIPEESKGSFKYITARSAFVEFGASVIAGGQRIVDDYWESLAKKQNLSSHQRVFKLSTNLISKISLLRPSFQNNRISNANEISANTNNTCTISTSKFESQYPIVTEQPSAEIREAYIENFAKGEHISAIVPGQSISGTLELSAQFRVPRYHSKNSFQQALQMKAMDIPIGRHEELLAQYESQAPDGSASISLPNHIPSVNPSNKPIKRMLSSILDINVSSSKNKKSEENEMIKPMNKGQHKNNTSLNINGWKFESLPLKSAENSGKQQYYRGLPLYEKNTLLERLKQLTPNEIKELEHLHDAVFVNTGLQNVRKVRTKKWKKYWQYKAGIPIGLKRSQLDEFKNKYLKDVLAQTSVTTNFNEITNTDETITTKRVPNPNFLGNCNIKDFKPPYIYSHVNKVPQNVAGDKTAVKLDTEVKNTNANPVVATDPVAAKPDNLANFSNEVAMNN
UniProt P53628: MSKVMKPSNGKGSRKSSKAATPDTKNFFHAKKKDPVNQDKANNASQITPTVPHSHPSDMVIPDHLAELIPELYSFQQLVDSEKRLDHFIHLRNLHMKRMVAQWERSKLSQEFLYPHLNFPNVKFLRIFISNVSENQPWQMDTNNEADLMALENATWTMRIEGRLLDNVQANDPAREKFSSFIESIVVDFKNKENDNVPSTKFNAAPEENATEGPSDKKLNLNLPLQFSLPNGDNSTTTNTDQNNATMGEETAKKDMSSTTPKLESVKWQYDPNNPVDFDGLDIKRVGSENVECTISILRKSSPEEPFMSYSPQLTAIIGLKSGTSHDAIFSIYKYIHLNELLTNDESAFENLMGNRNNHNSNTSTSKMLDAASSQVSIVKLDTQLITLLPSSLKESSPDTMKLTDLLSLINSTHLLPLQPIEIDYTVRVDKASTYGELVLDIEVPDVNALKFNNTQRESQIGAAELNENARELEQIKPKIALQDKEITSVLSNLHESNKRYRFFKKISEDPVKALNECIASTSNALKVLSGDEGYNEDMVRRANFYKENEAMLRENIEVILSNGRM
UniProt P35189: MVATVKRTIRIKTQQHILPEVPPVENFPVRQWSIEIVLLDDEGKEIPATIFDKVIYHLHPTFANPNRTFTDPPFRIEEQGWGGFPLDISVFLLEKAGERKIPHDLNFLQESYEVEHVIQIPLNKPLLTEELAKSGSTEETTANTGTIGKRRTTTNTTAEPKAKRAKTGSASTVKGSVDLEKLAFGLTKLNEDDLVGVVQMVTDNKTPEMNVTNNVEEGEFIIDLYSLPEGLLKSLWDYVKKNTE
UniProt Q12406: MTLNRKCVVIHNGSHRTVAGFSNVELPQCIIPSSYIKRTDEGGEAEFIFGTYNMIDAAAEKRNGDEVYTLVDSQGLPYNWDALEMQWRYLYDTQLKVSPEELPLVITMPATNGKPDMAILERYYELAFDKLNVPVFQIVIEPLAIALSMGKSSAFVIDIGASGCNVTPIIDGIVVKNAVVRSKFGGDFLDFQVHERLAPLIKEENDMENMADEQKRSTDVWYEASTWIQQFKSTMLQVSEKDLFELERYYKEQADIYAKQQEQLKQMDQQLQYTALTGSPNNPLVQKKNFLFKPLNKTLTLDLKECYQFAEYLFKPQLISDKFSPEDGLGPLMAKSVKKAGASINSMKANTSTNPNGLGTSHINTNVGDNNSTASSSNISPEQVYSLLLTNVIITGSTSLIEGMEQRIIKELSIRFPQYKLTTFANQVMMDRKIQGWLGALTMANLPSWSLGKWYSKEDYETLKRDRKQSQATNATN
UniProt P18888: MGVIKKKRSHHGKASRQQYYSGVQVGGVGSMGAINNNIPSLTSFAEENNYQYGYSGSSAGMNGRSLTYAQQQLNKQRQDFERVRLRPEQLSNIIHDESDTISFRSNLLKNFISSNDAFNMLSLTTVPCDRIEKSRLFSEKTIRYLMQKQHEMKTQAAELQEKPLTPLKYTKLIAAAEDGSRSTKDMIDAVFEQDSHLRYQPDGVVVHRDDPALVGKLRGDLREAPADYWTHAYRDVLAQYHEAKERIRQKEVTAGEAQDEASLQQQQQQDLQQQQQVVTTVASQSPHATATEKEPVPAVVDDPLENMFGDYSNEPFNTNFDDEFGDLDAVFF

The target of the experiment is Snf2-GFP (S. cerevisiae) (UniProt P22082). As to the kind of experiment: affinity purification with mass spectrometry.

Take “Snf5 (endogenous) (from UniProt P18480 1-905)”: the binding entry is listed as “binds”. Then Arp9 (from UniProt Q05123 1-467), with “binds”; and Swi3 (from UniProt P32591 1-825), with “binds”. Regarding Swp82 (from UniProt P43554 1-623), the binding entry is on record as “binds”. Then Snf12 (from UniProt P53628 1-566), with “binds”; and Taf14 (from UniProt P35189 1-244), with “binds”; and Arp7 (from UniProt Q12406 1-477), with “binds”.

Take Snf6 (from UniProt P18888 1-332): the binding entry was “binds”.

B1: Rmt2 (enzyme, UniProt Q03305 1-412)
chain: MSELHALLTFPERPISQSYYVPKLQHFLKSGIPATYTLEQVAAFEHEEKNRNGDKEFRESTDDNKTSNTTPLHVLARSLPLDIKDEELQVVMDMMNILFEYGAGWNFIDYEDKTVGDLFLERNQSRESPLYRRLVEAGVSAELLLRKLNGGDVEFLDTDELIGIEPEESVQTAVDGQKEESVGSDDDATAANQQVYLKTELEYKDDALITKENKDGVMMDWETKIMELASETLFPDPEATNSATILNIGFGMGIIDTFIQARKPYRHYICEAHPDVLAKMKMDGWYEKDNVVILEGRWQDTLNNLLDKGEVFFDGIYYDTFSEHYQDILDLYDVVVGLIKPEGVFSFFNGLGADRSLCYDVYKEIVEIDVATYGMKCDYTRYSLDEQLPDWNDVKRSYFNCNYYYHPRITFA
On to B1, for which the binding result was “binds”.

B2: Rtt102 (protein, UniProt P53330 1-157)
chain: MDPQTLITKANKVSYYGNPTSKESWRYDWYQPSKVSSNVQQPQQQLGDMENNLEKYPFRYKTWLRNQEDEKNLQRESCEDILDLKEFDRRILKKSLMTSHTKGDTSKATGAPSANQGDEALSVDDIRGAVGNSEAIPGLSAGVNNDNTKESKDVKMN
Take B2: the binding entry is given as “binds”.

B3: Rmt1 (enzyme, UniProt P38074 1-348)
chain: MSKTAVKDSATEKTKLSESEQHYFNSYDHYGIHEEMLQDTVRTLSYRNAIIQNKDLFKDKIVLDVGCGTGILSMFAAKHGAKHVIGVDMSSIIEMAKELVELNGFSDKITLLRGKLEDVHLPFPKVDIIISEWMGYFLLYESMMDTVLYARDHYLVEGGLIFPDKCSIHLAGLEDSQYKDEKLNYWQDVYGFDYSPFVPLVLHEPIVDTVERNNVNTTSDKLIEFDLNTVKISDLAFKSNFKLTAKRQDMINGIVTWFDIVFPAPKGKRPVEFSTGPHAPYTHWKQTIFYFPDDLDAETGDTIEGELVCSPNEKNNRDLNIKISYKFESNGIDGNSRSRKNEGSYLMH
Regarding B3, the binding entry is listed as “no binding”.

B4: Swi1 (endogenous) (protein, UniProt P09547 1-1314)
chain: MDFFNLNNNNNNNNTTTTTTTTNNNNTNNNNTNNNNNPANNTNNNNSTGHSSNTNNNTNNNNTNTGASGVDDFQNFFDPKPFDQNLDSNNNNSNSNNNDNNNSNTVASSTNFTSPTAVVNNAAPANVTGGKAANFIQNQSPQFNSPYDSNNSNTNLNSLSPQAILAKNSIIDSSNLPLQAQQQLYGGNNNNNSTGIANDNVITPHFITNVQSISQNSSSSTPNTNSNSTPNANQQFLPFNNSASNNGNLTSNQLISNYAASNSMDRSSSASNEFVPNTSDNNNNSNNHNMRNNSNNKTSNNNNVTAVPAATPANTNNSTSNANTVFSERAAMFAALQQKQQQRFQALQQQQQQQQNQQQQNQQPQQQQQQQQNPKFLQSQRQQQQRSILQSLNPALQEKISTELNNKQYELFMKSLIENCKKRNMPLQSIPEIGNRKINLFYLYMLVQKFGGADQVTRTQQWSMVAQRLQISDYQQLESIYFRILLPYERHMISQEGIKETQAKRIFLQQFLQELLKKVQQQQQAAALANANNNINSASSAPTPAAPGASVPATAAPGTEAGIVPVSANTPKSLNSNININVNNNNIGQQQVKKPRKQRVKKKTKKELELERKEREDFQKRQQKLLEDQQRQQKLLLETKLRQQYEIELKKLPKVYKRSIVRNYKPLINRLKHYNGYDINYISKIGEKIDSNKPIFLFAPELGAINLHALSMSLQSKNLGEINTALNTLLVTSADSNLKISLVKYPELLDSLAILGMNLLSNLSQNVVPYHRNTSDYYYEDAGSNQYYVTQHDKMVDKIFEKVNNNATLTPNDSNDEKVTILVDSLTGNQLPTPTPTEMEPDLDTECFISMQSTSPAVKQWDLLPEPIRFLPNQFPLKIHRTPYLTSLKKIKDEIDDPFTKINTRGAEDPKVLINDQLSTISMILRNISFSDNNSRIMSRNFYLKRFISDLLWLVLIHPENFTCNRKILNFKKDLVIVLSNISHLLEIASSIDCLLILILVISFGQPKLNPMASSSSFGSESLTFNEFQLQWGKYQTFGVDILAKLFSLEKPNLNYFKSILLNKNTGNNLYDRNSNNNHKDKKLLRRLLNLYNDNNKNNNNRHNLLNDVVSFLFSAIPLQQVLSQSADPSLLIDQFSPVISQSLTSILVIVQKILPLSNEVFEISENNSDSNSNNNGNKDSSFNFNKNLPFVWLSSEENIGSGLLKLSEIILNINNSTSKNTLLQQQNYSKVLLPSINISCVQLIKCLVEKSICFENCLNNDPEILKKIASIPNLFPTDLEIFQLFTNPSVDIQIINQYQLLYNLKNDILTNLE
Take B4: the binding result is “binds”.

B5: Snf11 (protein, UniProt P38956 1-169)
chain: MSSEIAYSNTNTNTENENRNTGAGVDVNTNANANANATANATANATANATAELNLPTVDEQRQYKVQLLLHINSILLARVIQMNNSLQNNLQNNINNSNNNNIIRIQQLISQFLKRVHANLQCISQINQGVPSAKPLILTPPQLANQQQPPQDILSKLYLLLARVFEIW
B5: the binding entry is “binds”.

Source of the values: paper doi:10.1101/2025.11.23.690026.
